According to publication PMC7618180:
Results are given in words; binding and its absence hold for the method and conditions named. Some entries that bind do so weakly or less than the wild type. Blank lines part the entries; values can stand above or below the binder they belong to.

Amino acid sequences for entries named in this document (tags omitted).
UniProt Q9SRU2: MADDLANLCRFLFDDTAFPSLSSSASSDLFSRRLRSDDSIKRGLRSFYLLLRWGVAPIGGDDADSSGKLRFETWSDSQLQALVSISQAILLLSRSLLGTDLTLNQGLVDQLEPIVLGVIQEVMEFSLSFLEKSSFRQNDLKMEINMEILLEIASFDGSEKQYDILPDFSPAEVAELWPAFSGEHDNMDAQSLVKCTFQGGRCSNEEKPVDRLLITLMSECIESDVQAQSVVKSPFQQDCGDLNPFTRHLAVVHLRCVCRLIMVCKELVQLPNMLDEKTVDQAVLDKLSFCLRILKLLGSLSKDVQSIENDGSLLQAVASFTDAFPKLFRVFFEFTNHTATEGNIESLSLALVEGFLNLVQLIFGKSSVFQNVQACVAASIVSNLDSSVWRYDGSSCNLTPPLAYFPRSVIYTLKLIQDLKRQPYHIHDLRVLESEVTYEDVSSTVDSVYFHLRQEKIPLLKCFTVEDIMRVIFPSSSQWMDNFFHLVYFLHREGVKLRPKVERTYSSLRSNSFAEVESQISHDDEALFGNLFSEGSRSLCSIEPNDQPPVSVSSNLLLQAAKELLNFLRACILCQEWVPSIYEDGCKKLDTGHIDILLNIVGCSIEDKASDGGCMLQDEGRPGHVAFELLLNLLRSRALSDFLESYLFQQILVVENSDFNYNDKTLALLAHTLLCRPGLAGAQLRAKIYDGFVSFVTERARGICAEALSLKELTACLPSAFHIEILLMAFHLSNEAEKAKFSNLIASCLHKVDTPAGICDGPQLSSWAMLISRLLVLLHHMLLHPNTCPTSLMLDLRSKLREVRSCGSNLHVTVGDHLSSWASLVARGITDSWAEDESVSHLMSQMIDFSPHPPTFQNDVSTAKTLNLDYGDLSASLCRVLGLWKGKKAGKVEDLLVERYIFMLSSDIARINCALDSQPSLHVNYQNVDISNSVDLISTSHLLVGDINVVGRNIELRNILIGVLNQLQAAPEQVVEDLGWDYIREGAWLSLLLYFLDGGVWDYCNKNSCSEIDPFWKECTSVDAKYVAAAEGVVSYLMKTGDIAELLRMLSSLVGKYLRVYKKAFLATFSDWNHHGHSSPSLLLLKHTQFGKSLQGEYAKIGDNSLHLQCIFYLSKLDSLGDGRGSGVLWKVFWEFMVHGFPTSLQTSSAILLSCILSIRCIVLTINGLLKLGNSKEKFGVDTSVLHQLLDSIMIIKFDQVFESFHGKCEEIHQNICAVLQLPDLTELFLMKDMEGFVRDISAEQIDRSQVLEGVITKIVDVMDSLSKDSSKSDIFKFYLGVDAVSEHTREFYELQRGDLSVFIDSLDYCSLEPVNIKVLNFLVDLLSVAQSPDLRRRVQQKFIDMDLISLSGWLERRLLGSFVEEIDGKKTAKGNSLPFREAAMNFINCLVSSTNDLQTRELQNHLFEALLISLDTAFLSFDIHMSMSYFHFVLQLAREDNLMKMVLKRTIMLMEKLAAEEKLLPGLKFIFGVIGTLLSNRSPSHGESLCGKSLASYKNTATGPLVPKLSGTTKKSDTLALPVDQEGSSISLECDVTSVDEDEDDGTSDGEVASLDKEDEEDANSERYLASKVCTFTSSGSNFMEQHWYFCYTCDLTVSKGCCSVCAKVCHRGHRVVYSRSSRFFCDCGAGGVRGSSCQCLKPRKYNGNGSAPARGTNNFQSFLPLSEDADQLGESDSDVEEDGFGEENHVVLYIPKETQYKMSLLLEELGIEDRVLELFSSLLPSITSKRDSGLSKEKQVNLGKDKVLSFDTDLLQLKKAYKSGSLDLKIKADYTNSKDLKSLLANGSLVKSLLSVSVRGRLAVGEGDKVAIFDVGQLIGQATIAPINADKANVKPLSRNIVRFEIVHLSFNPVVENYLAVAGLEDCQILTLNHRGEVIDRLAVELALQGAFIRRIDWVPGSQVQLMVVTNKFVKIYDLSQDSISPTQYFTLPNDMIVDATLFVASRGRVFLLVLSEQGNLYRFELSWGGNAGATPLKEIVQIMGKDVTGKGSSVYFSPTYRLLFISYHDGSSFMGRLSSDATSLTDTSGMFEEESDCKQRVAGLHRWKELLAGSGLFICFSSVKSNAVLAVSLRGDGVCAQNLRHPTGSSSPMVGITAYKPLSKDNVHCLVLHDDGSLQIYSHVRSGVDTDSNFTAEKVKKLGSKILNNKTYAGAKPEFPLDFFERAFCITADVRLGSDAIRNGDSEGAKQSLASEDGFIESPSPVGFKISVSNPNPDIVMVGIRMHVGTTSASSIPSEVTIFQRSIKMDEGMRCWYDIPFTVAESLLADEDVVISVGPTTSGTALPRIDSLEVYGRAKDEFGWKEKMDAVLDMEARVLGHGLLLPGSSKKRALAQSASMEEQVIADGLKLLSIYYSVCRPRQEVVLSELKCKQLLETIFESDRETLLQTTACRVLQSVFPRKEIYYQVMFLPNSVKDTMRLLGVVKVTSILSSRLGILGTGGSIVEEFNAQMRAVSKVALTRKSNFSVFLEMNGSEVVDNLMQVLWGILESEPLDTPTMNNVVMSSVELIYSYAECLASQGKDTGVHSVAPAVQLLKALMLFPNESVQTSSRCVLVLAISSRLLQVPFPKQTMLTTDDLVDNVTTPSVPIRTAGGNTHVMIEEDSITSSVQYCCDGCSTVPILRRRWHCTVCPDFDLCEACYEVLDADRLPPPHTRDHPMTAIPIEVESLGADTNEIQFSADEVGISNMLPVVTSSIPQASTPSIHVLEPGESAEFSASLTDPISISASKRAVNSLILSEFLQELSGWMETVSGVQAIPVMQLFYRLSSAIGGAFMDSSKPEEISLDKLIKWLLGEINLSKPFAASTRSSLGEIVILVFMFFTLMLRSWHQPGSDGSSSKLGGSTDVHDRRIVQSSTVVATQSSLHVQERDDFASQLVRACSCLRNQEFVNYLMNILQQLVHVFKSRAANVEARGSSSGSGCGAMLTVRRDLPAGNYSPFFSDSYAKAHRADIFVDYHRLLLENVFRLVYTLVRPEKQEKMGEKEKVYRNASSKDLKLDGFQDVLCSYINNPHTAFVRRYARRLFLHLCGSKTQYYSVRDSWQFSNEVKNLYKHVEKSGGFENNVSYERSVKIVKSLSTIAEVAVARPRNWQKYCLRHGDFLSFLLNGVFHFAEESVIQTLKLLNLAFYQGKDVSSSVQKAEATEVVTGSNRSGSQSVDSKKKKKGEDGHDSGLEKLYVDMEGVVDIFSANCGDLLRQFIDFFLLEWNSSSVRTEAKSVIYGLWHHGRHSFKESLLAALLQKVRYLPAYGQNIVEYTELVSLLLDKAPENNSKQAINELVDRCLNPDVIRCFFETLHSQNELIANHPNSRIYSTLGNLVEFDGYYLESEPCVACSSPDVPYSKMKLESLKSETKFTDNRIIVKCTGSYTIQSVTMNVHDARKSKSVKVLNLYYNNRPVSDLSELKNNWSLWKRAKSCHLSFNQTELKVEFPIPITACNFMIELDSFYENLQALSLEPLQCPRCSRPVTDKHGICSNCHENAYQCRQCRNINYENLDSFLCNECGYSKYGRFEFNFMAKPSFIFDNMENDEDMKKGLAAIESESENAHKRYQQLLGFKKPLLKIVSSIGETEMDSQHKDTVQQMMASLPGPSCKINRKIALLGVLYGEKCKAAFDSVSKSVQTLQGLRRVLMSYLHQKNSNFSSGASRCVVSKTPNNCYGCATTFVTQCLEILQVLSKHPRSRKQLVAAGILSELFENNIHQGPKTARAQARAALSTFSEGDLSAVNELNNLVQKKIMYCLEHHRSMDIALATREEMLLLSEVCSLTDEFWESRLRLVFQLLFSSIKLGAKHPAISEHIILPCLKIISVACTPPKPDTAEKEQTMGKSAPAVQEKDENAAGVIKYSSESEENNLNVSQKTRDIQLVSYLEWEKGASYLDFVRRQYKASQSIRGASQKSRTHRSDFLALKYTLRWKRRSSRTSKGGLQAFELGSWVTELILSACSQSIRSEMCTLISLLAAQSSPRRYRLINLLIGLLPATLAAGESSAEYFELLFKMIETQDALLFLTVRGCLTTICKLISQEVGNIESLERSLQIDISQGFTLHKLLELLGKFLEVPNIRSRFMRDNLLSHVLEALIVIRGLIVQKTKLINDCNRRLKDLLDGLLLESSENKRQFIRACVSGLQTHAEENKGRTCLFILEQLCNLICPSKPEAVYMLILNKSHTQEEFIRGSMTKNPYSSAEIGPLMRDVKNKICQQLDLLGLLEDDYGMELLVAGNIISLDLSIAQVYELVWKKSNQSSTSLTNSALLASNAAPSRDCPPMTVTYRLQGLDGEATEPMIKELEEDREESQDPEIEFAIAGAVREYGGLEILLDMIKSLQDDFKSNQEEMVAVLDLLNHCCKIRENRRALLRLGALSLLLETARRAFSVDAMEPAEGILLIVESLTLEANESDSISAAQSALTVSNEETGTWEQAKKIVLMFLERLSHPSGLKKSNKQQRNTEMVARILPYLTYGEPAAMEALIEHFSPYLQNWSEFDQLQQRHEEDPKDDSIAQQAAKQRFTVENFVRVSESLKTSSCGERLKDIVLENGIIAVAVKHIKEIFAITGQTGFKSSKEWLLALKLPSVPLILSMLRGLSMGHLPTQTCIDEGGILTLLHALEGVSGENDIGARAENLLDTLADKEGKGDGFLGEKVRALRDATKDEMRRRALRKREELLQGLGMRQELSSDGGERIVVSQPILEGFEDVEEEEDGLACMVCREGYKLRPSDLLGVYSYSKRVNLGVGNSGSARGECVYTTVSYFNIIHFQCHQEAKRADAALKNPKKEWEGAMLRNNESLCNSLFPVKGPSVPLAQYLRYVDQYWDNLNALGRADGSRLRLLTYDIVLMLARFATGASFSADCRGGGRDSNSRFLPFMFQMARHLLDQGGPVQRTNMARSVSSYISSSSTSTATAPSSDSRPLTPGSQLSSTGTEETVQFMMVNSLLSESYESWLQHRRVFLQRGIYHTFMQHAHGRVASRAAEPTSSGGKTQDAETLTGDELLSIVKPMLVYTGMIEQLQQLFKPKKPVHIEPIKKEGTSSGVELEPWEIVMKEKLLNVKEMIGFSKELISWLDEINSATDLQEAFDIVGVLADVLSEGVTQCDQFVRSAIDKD

What was measured:
[1] = target: Arabidopsis thaliana UBR4 (also known as BIG) (Arabidopsis thaliana) (UniProt Q9SRU2); experiment: cryo-EM structure; complex from co-expression of AtUBR4, AtDI19 and AtCALM1; medium resolution map of the dimerization interface, modelled using AlphaFold3; both purified
[2] = target: C. elegans UBR4 (C. elegans); experiment: cryo-EM structure; C. elegans UBR4 complex; low resolution map from a global 3D classification shows a bound substrate; both purified

- binding [1]: binds
B1: Arabidopsis thaliana Drought-induced protein 19 (DI19) (protein, UniProt Q39083 1-206)
chain: MDADSKRFLATLRSRSEMLMGFEEIDGDDDFQEEFACPFCAESYDIIGLCCHIDDEHTLESKNAVCPVCSLKVGVDIVAHITLHHGSLFKLQRKRKSRKSGTNSTLSLLRKELREGDLQRLLGFTSRNGSVASSVTPDPLLSSFISPTRSQSSPAPRQTKNVSEDKQIERKRQVFISPVSLKDREERRHKSEFVQRLLSSAIFDEV

- binding [2]: binds
B2: C. elegans KCMF1 (ZK652.6) (protein, UniProt P34664 1-575)
chain: MVTPLTGTHEGVSCDGCAFTAFAGNRYKCLRCSDYDLCFSCFTTKNYGDQQTIADIPIHDESHPMQLILSSVDFDLVYQGDPTRHYDERKIVSFTCPYCNITGLTERQFGTHVLSQHPEAPGYSVICPLCIGNTEMEHIQSKETENLSVHWTEIHLHTMENLFRSTEPITTRPVQRRPMLARRGNRAGVSRTAAQGRPLQDEIGAEMAALLRNMGPDSVEDIRRFTEMMTVPLLPGIRSSQRLMTSTGDRPTVVVESAVTHQDPNVQQVIRPLATIPIYPPTSDESGDETPQPAADSADESEDDNDIQELDDMQPIVEDEALKKDEFWKTLKTRISEEDVDLILETMKSTAKVKEDIDDKMPVWTQRPLKRLANAAQVTTTSDSEGDPGWLPLSFETTPIRSTGCGGYWSDKRFLRPRKMQREQSVASSNAEIMEKAEIALALIRASCLHEPVFTDPTKPDIALKEALQHLRLGEKPAKMMEYQAAEELVNMPERDPITTGEMEVEIPDFTARGYGQIVDGNIPLGVVPEADEAITNSEDEEIVGGETSGDDEDEQEDDENDSQDSSVPEEINID
